Experimental data published in the M2OR odorant receptor database.
This is a selection; strong and weak results do not stand in their true shares. Calls are pooled over several reports, among them a noisy single-well screen. The list shows a part of the results. Some of the results follow.

Assays:
Conditions in all cases: stereoisomer not certain
OR9Q2 = system: T1, OR9Q2
T1 sequence (whole entry): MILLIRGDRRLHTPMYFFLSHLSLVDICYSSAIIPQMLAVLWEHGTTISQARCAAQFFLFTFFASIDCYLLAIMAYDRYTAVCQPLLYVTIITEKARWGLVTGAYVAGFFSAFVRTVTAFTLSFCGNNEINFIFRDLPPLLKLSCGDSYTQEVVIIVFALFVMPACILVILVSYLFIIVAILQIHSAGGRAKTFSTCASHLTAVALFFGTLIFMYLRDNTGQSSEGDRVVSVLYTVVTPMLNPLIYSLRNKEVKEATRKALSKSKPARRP
Summary of the method: (§1)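 Values were gathered from published papers (main text and supplementary material), with extra details requested from the original authors when needed, and checked for typos and inconsistencies. Each receptor–molecule pair is called responsive (active) if the original authors judged the measured signal statistically different from baseline, and non-responsive (inactive) otherwise. Assay methods varied by source, often transient mammalian cell-line luciferase assays. Recorded details include cell line, G-protein, co-transfected protein and tags.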

ORM2B = system: T2, ORM2B
T2 sequence (whole entry): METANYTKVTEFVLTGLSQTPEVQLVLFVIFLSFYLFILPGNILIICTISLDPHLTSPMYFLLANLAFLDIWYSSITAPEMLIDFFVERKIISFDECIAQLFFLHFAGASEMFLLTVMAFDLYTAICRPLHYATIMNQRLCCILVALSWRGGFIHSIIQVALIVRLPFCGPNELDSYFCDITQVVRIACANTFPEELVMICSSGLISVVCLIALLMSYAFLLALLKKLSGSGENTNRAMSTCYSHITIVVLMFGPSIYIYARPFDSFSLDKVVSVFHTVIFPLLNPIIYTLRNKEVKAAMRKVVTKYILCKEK
Summary of the method: as §1

Or1m1 (Mus musculus) = target: T3, Or1m1 (Mus musculus) (UniProt Q8VFM9)
T3 sequence (whole entry): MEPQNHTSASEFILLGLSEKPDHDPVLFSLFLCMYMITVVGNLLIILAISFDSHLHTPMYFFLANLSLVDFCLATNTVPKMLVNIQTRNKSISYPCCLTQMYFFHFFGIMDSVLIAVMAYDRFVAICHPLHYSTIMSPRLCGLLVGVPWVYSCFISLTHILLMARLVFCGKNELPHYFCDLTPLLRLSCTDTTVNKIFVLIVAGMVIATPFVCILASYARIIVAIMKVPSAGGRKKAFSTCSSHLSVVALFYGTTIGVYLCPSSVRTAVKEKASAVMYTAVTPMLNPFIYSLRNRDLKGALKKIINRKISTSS
Summary of the method: as §1

Or5ar1 (Mus musculus) = target: T4, Or5ar1 (Mus musculus) (UniProt Q8VGS3)
T4 sequence (whole entry): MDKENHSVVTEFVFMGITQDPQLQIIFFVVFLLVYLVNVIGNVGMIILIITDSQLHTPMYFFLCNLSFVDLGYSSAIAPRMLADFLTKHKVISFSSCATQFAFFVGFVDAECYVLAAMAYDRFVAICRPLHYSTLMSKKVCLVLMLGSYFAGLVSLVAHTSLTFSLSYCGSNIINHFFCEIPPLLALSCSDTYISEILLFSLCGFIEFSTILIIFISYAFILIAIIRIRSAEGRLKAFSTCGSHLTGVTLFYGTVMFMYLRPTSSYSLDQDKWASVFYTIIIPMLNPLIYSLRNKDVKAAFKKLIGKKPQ
Summary of the method: as §1

Or2c1 (Mus musculus) = target: T5, Or2c1 (Mus musculus) (UniProt P23275)
T5 sequence (whole entry): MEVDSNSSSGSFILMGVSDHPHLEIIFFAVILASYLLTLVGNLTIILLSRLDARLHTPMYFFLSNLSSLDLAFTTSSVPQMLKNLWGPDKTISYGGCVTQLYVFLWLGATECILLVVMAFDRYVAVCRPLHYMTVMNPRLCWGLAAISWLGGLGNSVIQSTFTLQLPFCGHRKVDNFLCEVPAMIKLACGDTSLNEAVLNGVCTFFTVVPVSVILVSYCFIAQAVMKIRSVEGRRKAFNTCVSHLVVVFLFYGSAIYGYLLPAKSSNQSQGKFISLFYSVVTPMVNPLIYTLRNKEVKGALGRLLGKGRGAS
Summary of the method: as §1

Or10j5 (Mus musculus) = target: T6, Or10j5 (Mus musculus) (UniProt Q62007)
T6 sequence (whole entry): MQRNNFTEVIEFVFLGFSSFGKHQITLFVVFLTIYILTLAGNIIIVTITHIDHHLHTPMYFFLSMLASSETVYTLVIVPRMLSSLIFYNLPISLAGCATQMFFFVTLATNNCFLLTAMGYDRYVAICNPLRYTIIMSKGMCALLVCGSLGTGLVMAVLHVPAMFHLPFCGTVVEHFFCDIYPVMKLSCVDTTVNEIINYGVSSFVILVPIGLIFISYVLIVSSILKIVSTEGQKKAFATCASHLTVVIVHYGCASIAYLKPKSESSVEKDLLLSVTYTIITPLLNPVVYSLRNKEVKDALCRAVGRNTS
Summary of the method: as §1

SMILES | odorant receptor agonist call (OR9Q2) | odorant receptor agonist call (ORM2B) | odorant receptor agonist call (Or1m1 (Mus musculus)) | odorant receptor agonist call (Or5ar1 (Mus musculus)) | odorant receptor agonist call (Or2c1 (Mus musculus)) | odorant receptor agonist call (Or10j5 (Mus musculus))
C=CC(C)(O)CCC=C(C)C (stereo unspecified) | inactive | inactive | inactive | inactive |  | 
COc1cc(C=O)ccc1O | inactive | inactive | inactive | inactive |  | 
CC12CCC(CC1)C(C)(C)O2 | inactive | inactive | inactive | inactive |  | 
CC12CCC(C1)C(C)(C)C2=O (stereo unspecified) | inactive | inactive |  | inactive | inactive | 
COC(=O)c1ccccc1O | inactive | inactive | inactive | inactive |  | 
CC(C)(O)CCCC1=CCC(C=O)CC1 (stereo unspecified) |  |  | inactive | inactive | active | active
CC(C)=CCCC(C)=CC=O | inactive | inactive | inactive | inactive |  | 
CCCCCCCCCC=O | inactive | inactive | inactive | inactive | inactive | inactive
O=C1CCCCCCCCCCCCCCO1 | inactive | inactive | inactive | inactive |  | 
CC(C)C=O | inactive | inactive | inactive | inactive |  | 
C=C(C)C1CC=C(C)C(=O)C1 (stereo unspecified) |  |  | inactive | inactive | inactive | inactive
